Experimental data: article PMC6039432, “A small-molecule inhibitor of SOD1-Derlin-1 interaction ameliorates pathology in an ALS mouse model” (Nature Communications, 2018)
Residue numbers refer to the chain shown, from its start. These are yes or no findings as the source states them, for the method shown. In cells and extracts the contact can be indirect. Some entries that bind do so weakly or less than the wild type. For some of these results: Tags and fused reporters may be left off the sequences shown.

Protein sequences, listed by entry. Tags and fused reporters are not part of them. Lines headed by an entry give the natural chain unless they say otherwise; changes in a name come on top. Chains listed by the source or under a name are the forms on record and can include a tag or linker. Residues count along the entry.
UniProt Q86TM6: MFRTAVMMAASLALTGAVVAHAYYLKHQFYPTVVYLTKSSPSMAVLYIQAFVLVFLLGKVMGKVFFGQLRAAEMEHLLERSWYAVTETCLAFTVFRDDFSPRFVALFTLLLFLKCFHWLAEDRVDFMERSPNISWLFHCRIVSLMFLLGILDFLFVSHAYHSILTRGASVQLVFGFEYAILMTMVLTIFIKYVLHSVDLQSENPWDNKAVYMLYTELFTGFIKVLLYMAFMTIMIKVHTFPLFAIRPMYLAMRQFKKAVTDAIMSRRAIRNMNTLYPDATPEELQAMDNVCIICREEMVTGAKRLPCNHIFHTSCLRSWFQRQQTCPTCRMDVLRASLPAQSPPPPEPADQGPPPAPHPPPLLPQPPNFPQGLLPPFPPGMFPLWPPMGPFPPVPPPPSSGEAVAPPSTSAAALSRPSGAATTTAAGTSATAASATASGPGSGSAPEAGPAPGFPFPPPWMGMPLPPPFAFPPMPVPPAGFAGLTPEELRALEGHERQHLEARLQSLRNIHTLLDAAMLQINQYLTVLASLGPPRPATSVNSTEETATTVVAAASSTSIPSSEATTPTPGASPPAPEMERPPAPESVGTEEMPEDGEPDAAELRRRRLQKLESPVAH
UniProt P00441: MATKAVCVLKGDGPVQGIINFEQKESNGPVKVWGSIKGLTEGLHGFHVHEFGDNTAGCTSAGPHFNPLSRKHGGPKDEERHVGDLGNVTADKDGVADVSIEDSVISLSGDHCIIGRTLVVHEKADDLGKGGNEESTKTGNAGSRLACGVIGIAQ
Flag-SOD1(1-20)-CFP: residues 2-21 of P00441
Flag-SOD1^G93A (P00441, form named): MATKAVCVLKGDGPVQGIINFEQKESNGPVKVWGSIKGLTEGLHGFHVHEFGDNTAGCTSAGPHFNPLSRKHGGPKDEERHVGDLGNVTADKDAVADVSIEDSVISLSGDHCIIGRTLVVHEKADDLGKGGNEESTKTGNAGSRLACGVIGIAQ

Tests used:
[1] = target: T1, Derlin-1 of mouse spinal cord (mouse (endogenous in spinal cord)) (UniProt Q99J56); test: co-IP; mouse spinal cord homogenate (1% Triton X-100), anti-Derlin-1 antibody with protein G-Sepharose, blotted for SOD1 and Derlin-1
T1 sequence: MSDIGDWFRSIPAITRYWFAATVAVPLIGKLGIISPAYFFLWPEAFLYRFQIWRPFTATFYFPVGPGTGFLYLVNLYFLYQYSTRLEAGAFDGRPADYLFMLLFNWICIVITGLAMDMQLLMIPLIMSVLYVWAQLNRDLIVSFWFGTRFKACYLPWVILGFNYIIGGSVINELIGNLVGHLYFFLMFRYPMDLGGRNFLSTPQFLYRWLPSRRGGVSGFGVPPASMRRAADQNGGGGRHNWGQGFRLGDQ

Derlin-2-Flag = target: T2, Derlin-2-Flag (UniProt Q9GZP9); test: co-IP; cell-based immunoprecipitation: HEK293A cells transfected, treated with DMSO or #56 analogs for 24 h, lysed (1% Triton X-100), anti-Flag beads, blotted for HA and Flag
T2 sequence: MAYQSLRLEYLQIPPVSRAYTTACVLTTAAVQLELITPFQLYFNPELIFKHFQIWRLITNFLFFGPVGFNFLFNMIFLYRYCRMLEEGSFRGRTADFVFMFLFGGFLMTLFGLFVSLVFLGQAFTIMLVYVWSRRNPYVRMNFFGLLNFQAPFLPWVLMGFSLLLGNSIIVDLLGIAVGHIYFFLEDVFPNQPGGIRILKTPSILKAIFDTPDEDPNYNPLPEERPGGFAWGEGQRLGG

Derlin-3-Flag = target: T3, Derlin-3-Flag (UniProt Q96Q80); test: as above
T3 sequence: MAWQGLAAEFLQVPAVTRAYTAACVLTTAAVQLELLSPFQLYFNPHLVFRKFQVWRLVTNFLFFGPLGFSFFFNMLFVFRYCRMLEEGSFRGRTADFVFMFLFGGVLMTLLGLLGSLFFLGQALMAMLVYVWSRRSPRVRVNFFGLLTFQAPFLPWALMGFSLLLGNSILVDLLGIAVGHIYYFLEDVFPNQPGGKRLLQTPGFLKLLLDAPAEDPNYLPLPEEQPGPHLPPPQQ

Flag-HRD1 = Flag-HRD1 (UniProt Q86TM6); test: as above
Flag-SOD1^G93A (human) [2] = target: Flag-SOD1^G93A (human) (UniProt P00441); test: as above
Flag-SOD1^G93A (human) [3] = target: Flag-SOD1^G93A (human) (UniProt P00441); test: FRET or BRET; TR-FRET competition: lysate of HEK293A cells co-transfected with Flag-SOD1^G93A and Derlin-1-HA incubated with biotinylated peptide for 16 h, then Flag-Eu and HA-d2 added; the pair that is blocked
Flag-SOD1^G93A (human) [4] = target: Flag-SOD1^G93A (human) (UniProt P00441); test: FRET or BRET; TR-FRET in lysate of co-transfected HEK293A cells; anti-Flag antibody labelled with Eu and anti-HA antibody labelled with d2; FRET buffer 25 mM phosphate pH 7.0, 400 mM potassium fluoride, 0.1% BSA, 0.5% Triton X-100; signal as fold change over non-transfected lysate
[5] = target: Flag-SOD1(1-20)-CFP (human) (UniProt P00441); test: co-IP; in vitro immunoprecipitation: complex formed in co-transfected HEK293A cells, purified on anti-Flag beads (500 mM NaCl washes), eluted with Flag peptide, ultrafiltered, incubated with DMSO or compounds at 4 °C for 16 h, precipitated again with anti-Flag beads, blotted for HA and Flag
Flag-SOD1^G93A (human) [6] = target: Flag-SOD1^G93A (human) (UniProt P00441); test: as above
Derlin-1-HA, Q9BUN8 = target: T4, Derlin-1-HA, Q9BUN8; test: co-IP; cell-based immunoprecipitation: HEK293A cells transfected, treated with DMSO or #56 analogs for 24 h, lysed (1% Triton X-100), anti-Flag beads, blotted for HA and Flag; details: remark: other sources report otherwise
T4 chain: T1 sequence with I28V, I33L, F39L, F56I, A88T, L140M

Measured: binding

SOD1^G93A of SOD1^G93A transgenic mice (from UniProt P00441 1-154)
binds: [1]

B1: Derlin-1-HA (protein, UniProt Q9BUN8 1-251)
chain: T1 sequence with I28V, I33L, F39L, F56I, A88T, L140M
not listed: [1] | Derlin-1-HA, Q9BUN8
binds: all other assays above

B2: Derlin-1-HA, Q9BUN8 1-251 (protein)
chain: T1 sequence with I28V, I33L, F39L, F56I, A88T, L140M
binds: Derlin-1-HA, Q9BUN8
